From US20040266732A1, “Therapeutic agents, methods, and treatments” (priority 2002, published 2004)
For at least one compound, name, drawing or mass did not settle the structure.

Tested on: NCI-H23
Experiment: NCI 60 cell-line test
Assay type: cell-based, human
Conditions: NCI-H23 (Non-Small Cell Lung Cancer)
Method: Methodology: The NCI conducted a test of the MT103 drug against 60 human cell lines, with a minimum of five concentrations of MT103 at 10-fold dilutions. A 48 hour continuous drug exposure was used, and a sulforhodamine B (SRB) protein assay was used to estimate cell viability and growth. The human tumor cell lines of the cancer screening panel were grown in RPMI 1640 medium containing 5% fetal bovine serum and 2 mM L-glutamine. Cells were inoculated into 96 well microtiter plates in 100 μL at plating densities ranging from 5,000 to 40,000 cells/well depending on the doubling time of individual cell lines. […]
Following drug addition, the plates were incubated for an additional 48 h at 37° C., 5% CO2, 95% air, and 100% relative humidity. […] Bound stain was subsequently solubilized with 10 mM trizma base, and the absorbance was read on an automated plate reader at a wavelength of 515 nm. […] Using the seven absorbance measurements (time zero, (Tz), control growth, (C), and test growth in the presence of drug at the five concentration levels (Ti)), the percentage growth was calculated at each of the drug concentrations levels. Percentage growth inhibition was calculated as: […]
Three dose response parameters were calculated for each experimental agent. […] The drug concentration resulting in total growth inhibition (TGI) was calculated from Ti=Tz. […]

CC1(C)C2CC[C@@]1(CS(=O)(=O)N(C1CCCCC1)C1CCCCC1)C(O)C2 (stereo partly shown) [MT103]
TGI: 8.31−E05
